Experimental data taken from article PMC4607164.
No constants are given. Whether binding was seen depends on the method and setting. Some binding calls cover weakened binding; strength is not graded here.

T1: MEF35 (Mitochondrial Editing Factor 35), DYW subgroup PLS-class PPR protein encoded by locus At4g14050 (Arabidopsis thaliana) (UniProt O23266)
T1 sequence: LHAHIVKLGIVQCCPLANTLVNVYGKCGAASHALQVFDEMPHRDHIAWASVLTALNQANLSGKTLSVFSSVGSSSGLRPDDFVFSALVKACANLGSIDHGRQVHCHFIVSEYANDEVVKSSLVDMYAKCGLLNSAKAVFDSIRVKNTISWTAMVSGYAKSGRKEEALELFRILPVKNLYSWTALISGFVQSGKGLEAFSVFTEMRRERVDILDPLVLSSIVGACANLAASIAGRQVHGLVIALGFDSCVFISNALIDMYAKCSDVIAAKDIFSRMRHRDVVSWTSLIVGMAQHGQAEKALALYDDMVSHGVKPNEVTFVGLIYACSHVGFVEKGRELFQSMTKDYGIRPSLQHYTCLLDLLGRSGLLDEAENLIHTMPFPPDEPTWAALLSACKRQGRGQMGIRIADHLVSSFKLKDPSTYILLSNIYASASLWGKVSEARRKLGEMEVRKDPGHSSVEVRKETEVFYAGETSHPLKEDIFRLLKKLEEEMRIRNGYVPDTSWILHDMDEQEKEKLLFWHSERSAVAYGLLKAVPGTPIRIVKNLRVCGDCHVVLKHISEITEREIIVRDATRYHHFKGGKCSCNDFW


Molecular target: T1, MEF35 (Mitochondrial Editing Factor 35), DYW subgroup PLS-class PPR protein encoded by locus At4g14050 (Arabidopsis thaliana)
Experiment: two-hybrid; GAL4 system (Clontech), yeast PJ69-4A; bait in pGBKT7, prey in pGADT7; drop tests of cultures at OD600 0.1 and 0.3 on SD medium lacking T, L, H, A, in parallel with 2.5 mM 3AT; done at least twice

Row | Binder | binding
1 | MORF8 (multiple site organellar RNA editing factor 8) (protein, UniProt Q9LKA5 57-395) GGLVSVKGLSTQATSSSLNDPNPNWSNRPPKETILLDGCDFEHWLVVVEPPQGEPTRDEIIDSYIKTLAQIVGSEDEARMKIYSVSTRCYYAFGALVSEDLSHKLKELSNVRWVLPDSYLDVRNKDYGGEPFIDGKAVPYDPKYHEEWIRNNARANERNRRNDRPRNNDRSRNFERRRENMAGGPPPQRPPMGGPPPPPHIGGSAPPPPHMGGSAPPPPHMGQNYGPPPPNNMGGPRHPPPYGAPPQNNMGGPRPPQNYGGTPPPNYGGAPPANNMGGAPPPNYGGGPPPQYGAVPPPQYGGAPPQNNNYQQQGSGMQQPQYQNNYPPNRDGSGNPYQG | binds
2 | MORF1 (multiple site organellar RNA editing factor 1) (protein, UniProt O49429 61-419) FSTRQYKLYKEGDEITEDTVLFEGCDYNHWLITMDFSKEETPKSPEEMVAAYEETCAQGLGISVEEAKQRMYACSTTTYQGFQAIMTEQESEKFKDLPGVVFILPDSYIDPQNKEYGGDKYENGVITHRPPPIQSGRARPRPRFDRSGGGSGGPQNFQRNTQYGQQPPMQGGGGSYGPQQGYATPGQGQGTQAPPPFQGGYNQGPRSPPPPYQAGYNQGQGSPVPPYQAGYNQVQGSPVPPYQGTQSSYGQGGSGNYSQGPQGGYNQGGPRNYNPQGAGNFGPASGAGNLGPAPGAGNPGYGQGYSGPGQEQNQTFPQADQRNRDWNNNNPAGQPGSDQVRSRSIMNLASFFFDILIRH | binds
3 | MORF2 (multiple site organellar RNA editing factor 2) (protein, UniProt O22793 1-219) MALPLSGTRHLTRALLSNVTLMAPPRIPSSVHYGGSRLGCSTRFFSIRCGANRSGSTYSPLNSGSNFSDRPPTEMAPLFPGCDYEHWLIVMDKPGGEGATKQQMIDCYIQTLAKVVGSEEEAKKRIYNVSCERYLGFGCEIDEETSTKLEGLPGVLFVLPDSYVDPENKDYGAELFVNGEIVQRSPERQRRVEPQPQRAQDRPRYNDRTRYSRRRENTR | binds
